Assay results published in the supplement of paper PMC4604168 (melanoma cell lines).
The list shows a part of the results. Many values rest on one well or one pass, so single values are uncertain.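 Cells were imaged in 1,536-well plates, and nuclei stained with an antibody against cleaved PARP were counted against all DNA-stained nuclei to give the apoptosis fraction. Screening doses were chosen to leave most cells alive, and resting and induced cleaved-PARP levels differ strongly between cell lines.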

The compounds below were run on RVH-421 (assay: cleaved PARP positive nuclei fraction relative to DMSO control; melanoma cells; higher = more apoptosis). Details: library dose: low library concentration; 72 h.

Row | Compound | cleaved PARP positive nuclei fraction [%]
1 | CC[C@]1(O)C[C@H]2CN(CCc3c([nH]c4ccccc34)[C@@](C(=O)OC)(c3cc4c(cc3OC)N(C=O)[C@H]3[C@@](O)(C(=O)OC)[C@H](OC(C)=O)[C@]5(CC)C=CCN6CC[C@]43[C@@H]65)C2)C1 [vincristine] + NC(=O)Nc1cc(-c2cccc(F)c2)sc1C(=O)N[C@H]1CCCNC1 [AZD7762] (first compound 0.0001 µM, partner dose 0.02 µM) | 146
2 | CCCCCCCCCCCCCCCCCCOP(=O)([O-])OC1CC[N+](C)(C)CC1 [Perifosine] + COc1ccc2c(c1)CCC1C2CCC2(C)C(NCCCCCCN3C(=O)C=CC3=O)CCC12 [U73122] (first compound 0.4 µM, partner dose 0.4 µM) | 86.5
3 | Cc1cn(-c2cc(NC(=O)c3ccc(C)c(Nc4nccc(-c5cccnc5)n4)c3)cc(C(F)(F)F)c2)cn1 [nilotinib] + Cc1ccc(NC(=O)c2cccc(N(C)C)c2)cc1NC(=O)c1ccc(O)cc1 [ZM336372] (first compound 0.2 µM, partner dose 2 µM) | 262
4 | CC[C@]1(O)C[C@H]2CN(CCc3c([nH]c4ccccc34)[C@@](C(=O)OC)(c3cc4c(cc3OC)N(C=O)[C@H]3[C@@](O)(C(=O)OC)[C@H](OC(C)=O)[C@]5(CC)C=CCN6CC[C@]43[C@@H]65)C2)C1 [vincristine] + O=C(Nc1cccc(Cl)c1)Nc1ncc(CCNc2ncnc3ccsc23)s1 [SNS314] (first compound 0.0001 µM, partner dose 0.0008 µM) | 108
